The supplement of paper PMC12542422
Where a name gives a salt, the structure may show the parent alone. ± gives the standard deviation of the averaged measurements. This is one part of the list. These are raw signals, not scaled to a control.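 HeLa cells imaged for ribosome-assembly readouts (ENP1 staining with or without export block, or inducible tagged ribosomal protein reporters); machine learning classified each cell's signal location against solvent (DMSO) controls. Hits exceeded the DMSO false-positive mean by five standard deviations, then were visually confirmed; three biological replicates.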

These compounds were tested on HeLa K (ENP1 immunofluorescence, no LMB) (assay: fraction of cells with nucleolar or nucleolar/nucleoplasmic ENP1 signal (MainHitrate); higher = more cells with nucleolar/nuclear readout signal (for ENP1 -LMB: less RNAPI inhibition; for +LMB ENP1 and RP reporters: stronger nuclear/nucleolar retention, i.e. ribosome biogenesis defect)). Settings: concentration: 1 µM; treatment time: 6 h; ENP1 -LMB; leptomycin B: none.

Compound | fraction
N=C(N)N/N=C/c1c(Cl)cccc1Cl [Guanabenz acetate] | 0.979 ± 0.036
CC(=O)[C@H]1CC[C@H]2[C@@H]3CCC4=CC(=O)CC[C@]4(C)[C@H]3CC[C@]12C [Progesterone (Prometrium)] | 0.9967 ± 0.0058
Cc1onc(-c2ccccc2)c1C(=O)N[C@@H]1C(=O)N2[C@@H]1SC(C)(C)[C@@H]2C(=O)O [Oxacillin sodium monohydrate] | 0.993 ± 0.012
CCN(CC)C(=O)C1(c2ccccc2)CC1CN (centres undefined) [Milnacipran HCl] | 0.985 ± 0.026
CC(=O)Nc1ccccc1 [Acetanilide (Antifebrin)] | 0.988 ± 0.021
O=NN(CCCl)C(=O)NC1CCCCC1 [Lomustine (CeeNU)] | 0.9944 ± 0.0097
Cc1cccc(Nc2ccncc2S(=O)(=O)NC(=O)NC(C)C)c1 [Torsemide (Demadex)] | 0.998 ± 0.0034
O=P(O)(O)C(O)(Cn1ccnc1)P(=O)(O)O [Zoledronic Acid (Zoledronate)] | 0.9972 ± 0.0048
C[C@@H]1C/C=C/C=C/C=C/C=C/[C@H](O[C@@H]2O[C@H](C)[C@@H](O)[C@H](N)[C@@H]2O)C[C@@H]2O[C@](O)(C[C@@H](O)C[C@H]3O[C@@H]3/C=C/C(=O)O1)C[C@H](O)[C@H]2C(=O)O [Natamycin (Pimaricin)] | 0.998 ± 0.0034
CN(C)CCCN1c2ccccc2Sc2ccc(Cl)cc21 [Chlorpromazine (Sonazine)] | 0.99 ± 0.018
COc1cccc2c1C(=O)c1c(O)c3c(c(O)c1C2=O)C[C@@](O)(C(=O)CO)C[C@@H]3O[C@H]1C[C@H](N)[C@H](O)[C@H](C)O1 [Doxorubicin (Adriamycin)] | 0.682 ± 0.55
Cc1cc(N)c2ccccc2[n+]1CCCCCCCCCC[n+]1c(C)cc(N)c2ccccc21 [Dequalinium chloride] | 0.991 ± 0.015
C[C@@H]1CC(=O)NN=C1c1ccc(NN=C(C#N)C#N)cc1 [Levosimendan] | 0.9955 ± 0.0077
CCN1CCN(C(=O)N[C@@H](C(=O)N[C@@H]2C(=O)N3C(C(=O)O)=C(CSc4nnnn4C)CS[C@H]23)c2ccc(O)cc2)C(=O)C1=O [Cefoperazone (Cefobid)] | 0.9983 ± 0.0029
CCC(=O)O[C@]1(C(=O)CCl)[C@@H](C)C[C@H]2[C@@H]3C[C@H](F)C4=CC(=O)C=C[C@]4(C)[C@@]3(F)[C@@H](O)C[C@@]21C [Halobetasol Propionate] | 0.986 ± 0.023
C[N+](C)(C)C[C@H](O)CC(=O)[O-] [L-carnitine (Levocarnitine)] | 0.993 ± 0.012
CCOC(=O)[C@H](CCc1ccccc1)N[C@@H](C)C(=O)N1Cc2ccccc2C[C@H]1C(=O)O [Quinapril HCl (Accupril)] | 0.9944 ± 0.0097
N[C@H](C(=O)O)[C@H](O)c1ccc(O)c(O)c1 [Droxidopa (L-DOPS)] | 0.985 ± 0.026
COCCCC/C(=N\OCCN)c1ccc(C(F)(F)F)cc1 [Fluvoxamine maleate] | 0.998 ± 0.0036
Clc1ccc(C(Cn2ccnc2)OCc2ccc(Sc3ccccc3)cc2)c(Cl)c1 (centres undefined) [Fenticonazole nitrate] | 0.991 ± 0.016

In the list so far, these have an aryl thioether with sulfur outside any ring:
Compound | fraction
CCN1CCN(C(=O)N[C@@H](C(=O)N[C@@H]2C(=O)N3C(C(=O)O)=C(CSc4nnnn4C)CS[C@H]23)c2ccc(O)cc2)C(=O)C1=O [Cefoperazone (Cefobid)] | 0.9983 ± 0.0029
Clc1ccc(C(Cn2ccnc2)OCc2ccc(Sc3ccccc3)cc2)c(Cl)c1 (centres undefined) [Fenticonazole nitrate] | 0.991 ± 0.016

(list continues)

Compound | fraction
CC(=O)[C@]1(O)Cc2c(O)c3c(c(O)c2[C@@H](O[C@H]2C[C@H](N)[C@H](O)[C@H](C)O2)C1)C(=O)c1ccccc1C3=O [Idarubicin HCl] | 0.769 ± 0.4
CC(C(=O)O)c1ccc2c(c1)[nH]c1ccc(Cl)cc12 (centres undefined) [Carprofen] | 0.9958 ± 0.0073
Nc1nc(=O)[nH]cc1F [Flucytosine (Ancobon)] | 0.9978 ± 0.0038
C[C@@H](CN1CC(=O)NC(=O)C1)N1CC(=O)NC(=O)C1 [Dexrazoxane Hydrochloride] | 0.9972 ± 0.0048
CC1(C)S[C@@H]2[C@H](NC(=O)[C@H](N)c3ccc(O)cc3)C(=O)N2[C@H]1C(=O)O [Amoxicillin sodium (Amox)] | 0.9977 ± 0.004
O=C(O)C[C@H](O)C[C@H](O)/C=C/c1c(C2CC2)nc2ccccc2c1-c1ccc(F)cc1 [Pitavastatin calcium (Livalo)] | 0.9985 ± 0.0025
CCC[C@H](NC(=O)[C@@H]1[C@H]2CCC[C@H]2CN1C(=O)[C@@H](NC(=O)[C@@H](NC(=O)c1cnccn1)C1CCCCC1)C(C)(C)C)C(=O)C(=O)NC1CC1 [Telaprevir (VX-950)] | 0.9987 ± 0.0022
CC(=O)NS(=O)(=O)c1ccc(N)cc1 [sulfacetamide sodium] | 0.992 ± 0.015
CCN(CC)C(=O)/C(C#N)=C/c1cc(O)c(O)c([N+](=O)[O-])c1 [Entacapone] | 0.991 ± 0.015
CN(C)CCC=C1c2ccccc2CCc2ccccc21 [Amitriptyline HCl] | 0.992 ± 0.014
CC(C)Cc1ccc(C(C)C(=O)O)cc1 (centres undefined) [Ibuprofen Lysine (NeoProfen)] | 0.9972 ± 0.0048
N[C@@H]1CONC1=O [D-Cycloserine] | 0.99 ± 0.017
OC[C@H]1OC(O)[C@H](O)[C@@H](O)[C@@H]1O (stereo partly drawn) [Dextrose (D-glucose)] | 0.991 ± 0.015
CO[C@H]1C[C@@H]2CC[C@@H](C)[C@@](O)(O2)C(=O)C(=O)N2CCCC[C@H]2C(=O)O[C@H]([C@H](C)C[C@@H]2CC[C@@H](O)[C@H](OC)C2)CC(=O)[C@H](C)/C=C(\C)[C@@H](O)[C@@H](OC)C(=O)[C@H](C)C[C@H](C)/C=C/C=C/C=C/1C [Rapamycin (Sirolimus)] | 0.9984 ± 0.0027
CC(C(=O)O)c1cccc(Oc2ccccc2)c1 (centres undefined) [Fenoprofen calcium hydrate] | 0.969 ± 0.053
CCN1CCN(c2cc3c(cc2F)c(=O)c(C(=O)O)cn3C2CC2)CC1 [Enrofloxacin] | 0.985 ± 0.025
O=C(Oc1ccccc1C(=O)O)c1ccccc1O [Sasapyrine] | 0.987 ± 0.022
N[C@@H]1CCCCN(c2c(F)cc3c(=O)c(C(=O)O)cn(C4CC4)c3c2Cl)C1 [Besifloxacin HCl (Besivance)] | 0.977 ± 0.04
Cc1ccc(O)c([C@H](CCN(C(C)C)C(C)C)c2ccccc2)c1 [Tolterodine tartrate (Detrol LA)] | 0.9949 ± 0.0089
